# Reference: paper PMC5996148
# The other results are listed elsewhere or left out.
# How the values were obtained:
# Assay in all cases: protein microarray (ProtoArray v5.0), streptavidin-Alexa Fluor 647
# Conditions in all cases: 3'-biotin; 20 mM Tris (pH 7.5), 5 mM MgCl2, 100 mM KCl, 0.1% Tween-20, A/T-rich and random oligonucleotide blockers; temperature not stated; high values mean tight binding
# [1] = tested on: Cytoplasmic dynein 1 heavy chain 1 (human)
# [2] = tested on: Cytosolic non-specific dipeptidase (human)
# [3] = tested on: DAZ-associated protein 2 (human)
# DBNDD1 (human) = tested on: DBNDD1 (human)
# DBNDD2 (human) = tested on: DBNDD2 (human)
# [4] = tested on: DCN1-like protein 1 (human)
# DCPS (human) = tested on: DCPS (human)
# DCTD (human) = tested on: DCTD (human)
# DCTN2 (human) = tested on: DCTN2 (human)
# DCUN1D3 (human) = tested on: DCUN1D3 (human)
sequence,measurement,setting,value
GGTGACAGGGGTATGGGGAGGGG [G4-2 biotinylated (Ct1)],binding signal,[1],-0.389 z-score
same,binding signal,[2],-0.39 z-score
same,binding signal,[3],-0.385 z-score
same,binding signal,DBNDD1 (human),-0.381 z-score
same,binding signal,DBNDD2 (human),-0.392 z-score
same,binding signal,[4],-0.373 z-score
same,binding signal,DCPS (human),-0.377 z-score
same,binding signal,DCTD (human),-0.384 z-score
same,binding signal,DCTN2 (human),-0.385 z-score
same,binding signal,DCUN1D3 (human),-0.396 z-score
